# Laboratory results as given in the supplement of paper PMC11732987, “Enantioselective OTUD7B fragment discovery through chemoproteomics screening and high-throughput optimisation” (Communications Chemistry, 2025).
# By UniProt entry, the sequences of proteins in these tests, tags left out. Where a name states a change or a piece, a line headed by the entry shows the natural chain unless it says otherwise.
# UniProt Q86Y79: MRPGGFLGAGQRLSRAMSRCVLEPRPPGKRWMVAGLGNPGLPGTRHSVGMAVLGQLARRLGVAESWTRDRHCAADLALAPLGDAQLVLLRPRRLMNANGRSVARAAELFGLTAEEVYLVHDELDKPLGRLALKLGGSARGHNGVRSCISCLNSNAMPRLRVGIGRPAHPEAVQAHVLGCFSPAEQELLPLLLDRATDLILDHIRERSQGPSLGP
# UniProt Q9P2W1: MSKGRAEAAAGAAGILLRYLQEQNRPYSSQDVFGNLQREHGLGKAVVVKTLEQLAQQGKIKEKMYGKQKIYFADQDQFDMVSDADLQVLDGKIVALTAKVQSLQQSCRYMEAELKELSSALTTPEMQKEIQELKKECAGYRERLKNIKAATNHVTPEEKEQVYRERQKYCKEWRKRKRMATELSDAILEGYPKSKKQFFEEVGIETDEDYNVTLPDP
# UniProt P43378: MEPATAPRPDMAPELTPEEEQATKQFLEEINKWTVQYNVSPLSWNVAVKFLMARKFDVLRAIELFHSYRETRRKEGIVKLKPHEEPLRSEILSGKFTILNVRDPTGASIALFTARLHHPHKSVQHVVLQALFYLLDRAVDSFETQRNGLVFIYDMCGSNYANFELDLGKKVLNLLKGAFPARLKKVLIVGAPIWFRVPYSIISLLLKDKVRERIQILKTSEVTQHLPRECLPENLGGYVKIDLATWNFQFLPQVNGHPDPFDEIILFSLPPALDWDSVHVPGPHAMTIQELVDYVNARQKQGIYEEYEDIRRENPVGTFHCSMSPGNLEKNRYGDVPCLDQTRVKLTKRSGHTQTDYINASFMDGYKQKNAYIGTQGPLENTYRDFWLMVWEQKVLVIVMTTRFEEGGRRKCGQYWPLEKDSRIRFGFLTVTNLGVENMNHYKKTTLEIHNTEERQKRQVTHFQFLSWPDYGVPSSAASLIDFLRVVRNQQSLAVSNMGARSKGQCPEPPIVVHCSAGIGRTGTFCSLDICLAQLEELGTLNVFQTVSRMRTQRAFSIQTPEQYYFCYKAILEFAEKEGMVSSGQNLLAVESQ
# UniProt Q9Y4B4: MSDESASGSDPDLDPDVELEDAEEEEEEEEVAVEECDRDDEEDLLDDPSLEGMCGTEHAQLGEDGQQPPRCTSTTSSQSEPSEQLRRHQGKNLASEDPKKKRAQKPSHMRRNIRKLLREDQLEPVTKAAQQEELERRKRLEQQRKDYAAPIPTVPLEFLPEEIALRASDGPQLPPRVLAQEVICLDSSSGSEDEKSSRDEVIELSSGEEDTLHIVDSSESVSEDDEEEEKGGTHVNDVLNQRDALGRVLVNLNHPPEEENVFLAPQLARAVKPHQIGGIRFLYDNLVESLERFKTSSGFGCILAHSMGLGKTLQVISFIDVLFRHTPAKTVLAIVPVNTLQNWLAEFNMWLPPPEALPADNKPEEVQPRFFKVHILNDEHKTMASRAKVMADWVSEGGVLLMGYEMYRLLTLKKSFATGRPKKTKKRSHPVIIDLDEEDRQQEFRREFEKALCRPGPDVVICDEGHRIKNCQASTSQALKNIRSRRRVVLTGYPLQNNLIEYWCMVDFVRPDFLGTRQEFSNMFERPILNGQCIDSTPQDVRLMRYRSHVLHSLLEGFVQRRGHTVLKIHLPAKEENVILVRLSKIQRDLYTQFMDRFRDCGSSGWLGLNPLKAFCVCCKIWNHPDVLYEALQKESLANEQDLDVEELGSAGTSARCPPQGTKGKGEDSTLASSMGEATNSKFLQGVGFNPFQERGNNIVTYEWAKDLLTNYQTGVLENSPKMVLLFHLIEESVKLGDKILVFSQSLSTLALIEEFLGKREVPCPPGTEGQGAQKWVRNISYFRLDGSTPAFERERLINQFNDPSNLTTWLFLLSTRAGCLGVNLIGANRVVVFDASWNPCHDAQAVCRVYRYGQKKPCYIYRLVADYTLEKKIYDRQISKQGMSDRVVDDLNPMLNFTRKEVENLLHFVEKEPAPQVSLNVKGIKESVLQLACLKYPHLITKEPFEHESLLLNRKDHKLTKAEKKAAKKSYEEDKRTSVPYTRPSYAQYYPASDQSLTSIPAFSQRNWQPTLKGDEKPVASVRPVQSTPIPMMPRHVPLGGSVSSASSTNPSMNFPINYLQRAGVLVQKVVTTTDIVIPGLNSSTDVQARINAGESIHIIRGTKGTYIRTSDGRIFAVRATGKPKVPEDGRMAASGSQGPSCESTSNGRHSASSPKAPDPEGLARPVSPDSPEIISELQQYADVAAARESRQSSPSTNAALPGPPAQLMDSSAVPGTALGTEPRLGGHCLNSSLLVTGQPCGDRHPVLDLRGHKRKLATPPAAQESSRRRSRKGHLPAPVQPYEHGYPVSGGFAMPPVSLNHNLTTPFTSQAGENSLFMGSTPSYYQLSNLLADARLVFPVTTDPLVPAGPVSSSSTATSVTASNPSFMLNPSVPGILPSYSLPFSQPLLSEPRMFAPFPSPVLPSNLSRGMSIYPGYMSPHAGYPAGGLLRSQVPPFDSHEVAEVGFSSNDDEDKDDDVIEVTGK
# UniProt Q3YEC7: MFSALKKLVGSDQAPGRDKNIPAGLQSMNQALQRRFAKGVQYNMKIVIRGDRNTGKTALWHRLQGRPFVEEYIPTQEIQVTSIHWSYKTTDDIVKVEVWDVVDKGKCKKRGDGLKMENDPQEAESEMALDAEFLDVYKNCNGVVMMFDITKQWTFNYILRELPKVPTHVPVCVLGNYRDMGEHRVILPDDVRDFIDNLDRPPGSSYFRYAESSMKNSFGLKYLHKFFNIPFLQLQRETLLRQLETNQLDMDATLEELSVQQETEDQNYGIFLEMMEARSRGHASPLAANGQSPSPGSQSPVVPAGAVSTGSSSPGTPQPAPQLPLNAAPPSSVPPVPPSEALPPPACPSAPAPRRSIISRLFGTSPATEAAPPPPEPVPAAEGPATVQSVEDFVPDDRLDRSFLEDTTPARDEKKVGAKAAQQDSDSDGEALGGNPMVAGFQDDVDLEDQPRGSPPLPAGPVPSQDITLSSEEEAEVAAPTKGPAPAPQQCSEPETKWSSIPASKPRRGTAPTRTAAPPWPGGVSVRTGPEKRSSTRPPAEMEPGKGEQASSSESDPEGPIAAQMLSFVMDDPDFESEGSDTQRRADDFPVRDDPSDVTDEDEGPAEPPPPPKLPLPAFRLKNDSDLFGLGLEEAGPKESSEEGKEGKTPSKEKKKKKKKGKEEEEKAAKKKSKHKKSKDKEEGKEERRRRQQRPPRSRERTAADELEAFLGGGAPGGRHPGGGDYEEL
# UniProt Q9H5N1: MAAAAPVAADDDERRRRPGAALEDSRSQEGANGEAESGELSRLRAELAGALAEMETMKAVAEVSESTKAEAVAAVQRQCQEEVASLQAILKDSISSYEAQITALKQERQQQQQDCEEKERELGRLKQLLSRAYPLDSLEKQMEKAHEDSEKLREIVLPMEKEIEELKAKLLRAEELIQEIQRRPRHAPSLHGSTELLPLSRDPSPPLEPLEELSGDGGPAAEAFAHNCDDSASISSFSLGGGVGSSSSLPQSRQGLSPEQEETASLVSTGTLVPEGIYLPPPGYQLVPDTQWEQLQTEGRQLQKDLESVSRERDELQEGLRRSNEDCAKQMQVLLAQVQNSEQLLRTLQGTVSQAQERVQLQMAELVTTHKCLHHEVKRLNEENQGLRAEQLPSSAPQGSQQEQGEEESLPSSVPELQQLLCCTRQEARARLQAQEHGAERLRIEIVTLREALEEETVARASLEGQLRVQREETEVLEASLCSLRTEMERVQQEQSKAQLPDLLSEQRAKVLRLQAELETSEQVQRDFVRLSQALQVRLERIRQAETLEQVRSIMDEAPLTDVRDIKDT
# UniProt Q5JS54: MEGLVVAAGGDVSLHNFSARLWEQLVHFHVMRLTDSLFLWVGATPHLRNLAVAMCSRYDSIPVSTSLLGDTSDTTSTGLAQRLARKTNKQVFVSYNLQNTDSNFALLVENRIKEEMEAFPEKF
# UniProt Q12923: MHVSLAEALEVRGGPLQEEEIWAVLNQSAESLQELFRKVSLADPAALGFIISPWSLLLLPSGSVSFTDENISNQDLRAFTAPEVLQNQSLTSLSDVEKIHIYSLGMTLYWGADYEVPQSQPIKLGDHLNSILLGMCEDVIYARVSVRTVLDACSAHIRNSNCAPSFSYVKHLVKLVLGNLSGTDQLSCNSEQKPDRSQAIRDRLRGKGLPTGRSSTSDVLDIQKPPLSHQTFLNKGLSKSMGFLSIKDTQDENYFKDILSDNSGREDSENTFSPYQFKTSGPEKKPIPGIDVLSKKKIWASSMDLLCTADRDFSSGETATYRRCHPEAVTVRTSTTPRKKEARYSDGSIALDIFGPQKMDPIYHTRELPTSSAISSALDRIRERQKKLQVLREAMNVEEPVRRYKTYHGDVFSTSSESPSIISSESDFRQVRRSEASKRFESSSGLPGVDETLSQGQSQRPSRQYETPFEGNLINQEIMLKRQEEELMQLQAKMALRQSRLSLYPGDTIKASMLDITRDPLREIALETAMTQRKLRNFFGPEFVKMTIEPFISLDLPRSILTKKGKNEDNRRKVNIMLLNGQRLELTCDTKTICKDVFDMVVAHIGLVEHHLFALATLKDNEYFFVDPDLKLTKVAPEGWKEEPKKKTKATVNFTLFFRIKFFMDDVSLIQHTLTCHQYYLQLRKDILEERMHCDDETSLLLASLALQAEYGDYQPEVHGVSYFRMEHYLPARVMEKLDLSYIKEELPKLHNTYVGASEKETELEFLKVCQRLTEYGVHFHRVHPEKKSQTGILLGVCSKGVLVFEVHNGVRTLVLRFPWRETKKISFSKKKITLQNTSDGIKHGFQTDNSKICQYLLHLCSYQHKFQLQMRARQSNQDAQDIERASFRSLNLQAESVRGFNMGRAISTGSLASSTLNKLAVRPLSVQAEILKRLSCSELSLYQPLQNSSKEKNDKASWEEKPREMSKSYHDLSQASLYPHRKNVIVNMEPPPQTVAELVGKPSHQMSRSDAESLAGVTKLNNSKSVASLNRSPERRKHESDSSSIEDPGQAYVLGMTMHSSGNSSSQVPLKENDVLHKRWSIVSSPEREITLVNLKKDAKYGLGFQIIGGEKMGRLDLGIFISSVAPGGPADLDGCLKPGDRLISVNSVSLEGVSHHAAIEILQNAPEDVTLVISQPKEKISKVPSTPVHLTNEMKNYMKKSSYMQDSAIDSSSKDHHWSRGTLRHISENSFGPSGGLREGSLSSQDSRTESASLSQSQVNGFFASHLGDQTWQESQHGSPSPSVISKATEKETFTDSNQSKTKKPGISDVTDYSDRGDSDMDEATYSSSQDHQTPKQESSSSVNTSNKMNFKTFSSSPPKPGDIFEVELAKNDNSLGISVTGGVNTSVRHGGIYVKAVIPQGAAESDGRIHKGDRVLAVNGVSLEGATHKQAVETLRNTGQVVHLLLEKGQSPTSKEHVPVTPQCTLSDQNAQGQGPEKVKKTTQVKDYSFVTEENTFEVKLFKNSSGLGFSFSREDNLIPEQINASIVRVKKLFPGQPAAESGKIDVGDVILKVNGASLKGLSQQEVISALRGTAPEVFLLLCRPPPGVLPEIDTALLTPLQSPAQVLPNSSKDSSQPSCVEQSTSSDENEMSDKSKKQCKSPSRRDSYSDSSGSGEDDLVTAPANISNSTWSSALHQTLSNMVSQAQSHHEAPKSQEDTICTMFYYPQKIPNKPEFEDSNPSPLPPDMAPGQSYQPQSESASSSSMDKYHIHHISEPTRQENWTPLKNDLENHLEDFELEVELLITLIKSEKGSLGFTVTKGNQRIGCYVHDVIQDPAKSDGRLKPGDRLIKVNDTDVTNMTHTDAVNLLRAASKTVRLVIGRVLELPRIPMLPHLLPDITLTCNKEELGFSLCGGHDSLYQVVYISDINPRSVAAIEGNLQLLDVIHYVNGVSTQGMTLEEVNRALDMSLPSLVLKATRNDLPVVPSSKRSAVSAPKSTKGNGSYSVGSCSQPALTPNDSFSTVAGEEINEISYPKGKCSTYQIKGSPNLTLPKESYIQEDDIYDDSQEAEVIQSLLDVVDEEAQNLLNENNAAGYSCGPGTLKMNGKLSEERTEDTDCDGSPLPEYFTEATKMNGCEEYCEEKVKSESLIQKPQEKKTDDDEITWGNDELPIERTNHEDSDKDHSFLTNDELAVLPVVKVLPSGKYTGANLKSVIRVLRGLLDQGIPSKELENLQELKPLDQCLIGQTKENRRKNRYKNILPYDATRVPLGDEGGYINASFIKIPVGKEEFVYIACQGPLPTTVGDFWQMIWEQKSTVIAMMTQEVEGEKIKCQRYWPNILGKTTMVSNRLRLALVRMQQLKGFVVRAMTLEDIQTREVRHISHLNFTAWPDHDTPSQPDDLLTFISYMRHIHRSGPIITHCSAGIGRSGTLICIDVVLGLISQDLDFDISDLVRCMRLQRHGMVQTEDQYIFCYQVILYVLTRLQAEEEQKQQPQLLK
# UniProt Q93096: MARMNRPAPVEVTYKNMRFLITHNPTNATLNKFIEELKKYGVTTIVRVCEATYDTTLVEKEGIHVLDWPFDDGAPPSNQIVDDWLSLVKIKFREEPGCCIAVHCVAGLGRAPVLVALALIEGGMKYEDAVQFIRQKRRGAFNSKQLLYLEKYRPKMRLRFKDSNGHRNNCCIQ
# Some of the results follow. The data scatter; read single values as rough.
# Compound: ClCC(=O)N[C@H]1CCCc2ccccc12
# Assay: log2 mean competition ratio of IA-DTB cysteine labelling (DMSO/compound) (log2 ratio); higher = stronger cysteine engagement by compound
# Details: 50 µM; treatment time: 4 h; cell line lysate: HEK293T
# Protocol: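 IA-DTB competitive cysteine chemoproteomics in HEK293T RIPA lysate. Lysates were treated with compound 29 or 30 at 50 or 200 µM for 4 h, then IA-DTB (500 µM, 1 h), trypsin-digested, NeutrAvidin-enriched and analysed by diaPASEF. Competition ratio = intensity DMSO / intensity compound (n=4 treated, n=64 DMSO); binding: mean log2 CR ≥ 1 and p ≤ 0.05 plus QC filters. Target is the cysteine site.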
row,Target,log2 mean competition ratio
1,PSMC5 C112,0.0314
2,RAB3IL1 C29,-0.13
3,PTRH1 C20 (UniProt Q86Y79),-0.0504
4,PXN C108 (UniProt P49023),0.271
5,PSMC3IP C107 (UniProt Q9P2W1),0.0014
6,PUS7 C421 (UniProt Q96PZ0),-0.00877
7,QRSL1 C236 (UniProt Q9H0R6),-0.141
8,PWP2 C24 (UniProt Q15269),0.267
9,PSMD6 C58 (UniProt Q15008),0.306
10,PSMD4 C58,-0.0088
11,R3HCC1 C100 (UniProt Q9Y3T6+R3HCC1),0.213
12,PTPN9 C230 (UniProt P43378),-0.226
13,PRR14L C1503 (UniProt Q5THK1),-0.232
14,RAD54L2 C71 (UniProt Q9Y4B4),0.472
15,RABL6 C491 (UniProt Q3YEC7),-0.417
16,RABEP2 C482 (UniProt Q9H5N1),0.0294
17,PSMG4 C55 (UniProt Q5JS54),0.0782
18,PYCR1 C262,0.0332
19,RABEPK C115 (UniProt Q7Z6M1),0.247
20,PTPN11 C104,0.0659
21,RAB34 C19,-0.273
22,PTPN13 C2024 (UniProt Q12923),0.268
23,PTP4A1 C49 (UniProt Q93096),-0.333
24,PRRC2C C620 (UniProt Q9Y520),-0.8
25,PSME1 C22 (UniProt Q06323),0.179
26,RAD54L2 C184 (UniProt Q9Y4B4),0.0867
27,RADIL C73,-0.0615
28,RAD50 C48,0.185
29,PTPN11 C259,0.0773
30,PRR14L C1730 (UniProt Q5THK1),-0.0743

# Reformatted bar-delimited: entries from further up.
row | Target | log2 mean competition ratio
9 | PSMD6 C58 (UniProt Q15008) | 0.306
16 | RABEP2 C482 (UniProt Q9H5N1) | 0.0294
17 | PSMG4 C55 (UniProt Q5JS54) | 0.0782
22 | PTPN13 C2024 (UniProt Q12923) | 0.268
24 | PRRC2C C620 (UniProt Q9Y520) | -0.8
26 | RAD54L2 C184 (UniProt Q9Y4B4) | 0.0867
29 | PTPN11 C259 | 0.0773
